What was measured:
[1] = system: bone marrow; experiment: Histopathological analysis of bone marrow sternebrae (cellularity grade, megakaryocytes) after sublethal TBI or sham irradiation; type: in vivo, mice; conditions: sham-irradiated
Experimental: (§1) To determine the pathophysiological effects of RRx-001 on hematopoietic protection in mice, CD2F1 male mice were treated with 10 mg/kg RRx-001 or the vehicle control 24 hours prior to a sublethal dose of TBI (7 Gy at 0.6 Gy/min using High-level Cobalt-60) or sham irradiation (day 0) according to the table below.
(§2) CD2F1 male mice (n=3/group) were divided into 4 experimental groups: 1) irradiation+vehicle, 2) irradiation+RRx-001, 3) sham-irradiation+vehicle and 4) sham-irradiation+RRx-001. Either 10 mg/kg RRx-001 or the vehicle control were IP injected 24 hours prior to either irradiation or sham-irradiation (day 0). On days 2, 7, 14, 21, and 28 post-irradiation (day 0) mice were humanely euthanized. Blood, bone marrow, and sternebrae were then collected. This experiment was performed in duplicate for a total of n=6 mice/group/time point.
Sternebrae from euthanized mice (n=6/group/time point) were collected on days 2, 7, 14, 21 and 28 post-irradiation. Sternebrae were fixed in 10% zinc-buffered formalin for at least 24 hours and up to 7 days. Fixed sternebrae were decalcified for 3 hr in 12-18% sodium EDTA (pH 7.4-7.5) and specimens dehydrated using graded ethanol concentrations and embedded in paraffin. Longitudinal 4 μm sections were stained with regular hematoxylin and eosin. […] One of the pathologist scored all the samples blindly. Bone marrow was evaluated in situ within sternebrae and graded (Grade 1: <10%; Grade 2: 11-30%; Grade 3: 31-60%; Grade 4: 61-89%; Grade 5: >90%) for total cellularity. Megakaryocytes were also quantified based on the average per 10 high power fields (HPF) at 400× magnification using a BX43 or BX53 microscope (Olympus, Minneapolis, MN). […]
To determine the effect of RRx-001 on bone marrow, a histopathological analysis of bone marrow sternebrae was performed and the cellularity, as reported by grade (grade 1: <10%; grade 2: 11-30%; grade 3: 31-60%; grade 4: 61-89%; grade 5: ≥90% cellularity), and megakaryocyte numbers (averaged per 10 high-powered fields; HPF) were ascertained by two pathologists, one of which scored all the samples blindly (TAS, WEC).

[2] = system: CD2F1 male mice; experiment: Complete blood count with differential and reticulocytes after sublethal TBI or sham irradiation; type: in vivo; conditions: sham-irradiated, 10 mg/kg; longitudinal mixed model repeated measures
Experimental: as §1, §2
Post-irradiation whole blood was obtained by terminal cardiocentesis. Blood samples were immediately transferred into EDTA tubes (Sarstedt Inc., Newton, NC) and gently rotated until the time of analysis. The tubes were analyzed for a complete blood count with differential and reticulocytes using the ADVIA 2120 (Siemens Medical Solutions Diagnostics, Dublin, Ireland), and Microsoft software version 5.9 (Microsoft Corp., Redmond, WA) to generate the data.
Blood parameters were compared between treatment groups using an analysis of variance (ANOVA). […]

O=C(CBr)N1CC([N+](=O)[O-])([N+](=O)[O-])C1 [RRx-001, 2-bromo-1-(3,3-dinitroazetidin-1-yl)ethan-1-one]
bone marrow cellularity grade ([1]; 10 mg/kg IP, whole study): 5 (grade 5: ≥90% cellularity)
overall cellularity of the bone marrow ([1]; 10 mg/kg IP, whole study (days 2-28)): ≥ 90%
number of megakaryocytes ([1]; 10 mg/kg, day 14, vs vehicle control): significantly higher than the vehicle control
platelets, overall mean over time (standard error) [2]: 1067.73 (32.26)

From patent US12357608B2, “Methods and compositions utilizing RRx-001 combination therapy for radioprotection” (priority 2018, dated 2025)
